# PubChem BioAssay AID652243, Drosophila RNAi Screening Center | 2013
# Screen: 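Fly regulators of androgen-dependent reporter output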 (primary screen)
# Cells: Drosophila S2R+ cells
# Knock-down reagent: long dsRNA against Drosophila genes
# Duration: 72 h (48 h, then 24 h hormone)
# Conditions: synthetic androgen R1881 at 10 nM for 24 h
# Measured: 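Firefly light from an androgen-responsive reporter and Renilla control light per well, raw and unnormalised, for each of two replicates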
# Reading the numbers: firefly reporter light: higher = more light from androgen-responsive reporter; Renilla control light: higher = more constitutive control signal (cell number, transfection)
# Active means: 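Hit when the log firefly-to-Renilla ratio dropped or increased by a fixed fold versus the mean of GFP or LacZ controls across duplicate plates; lowering cut given as 1.5 and as 3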
# Calls: active = hit: reporter lowered or raised; inactive = no hit
# The screen tested about 24,000 reagents; this is an unselected part of those with a known target gene and a result. In the full data, 246 (1%) were called active. 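Plates not normalised; calls are printed but the firefly/Renilla ratio behind them is not deposited; fold cut for lowering reported inconsistently.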 The raw values are shown without normalisation. The numbers tell different reagents against one gene apart. Names joined by + are all predicted targets of the reagent. Not given: the amount of reagent.
predicted target,reagent no.,"firefly reporter light, replicate 1","firefly reporter light, replicate 2","Renilla control light, replicate 1","Renilla control light, replicate 2",Outcome
nito (spenito),1,6.90e5,6.24e5,1.47e6,1.32e6,inactive
CG30178,1,8.10e5,5.44e5,1.76e6,1.89e6,inactive
RecQ5 (RecQ5 helicase),1,1.38e6,1.10e6,2.16e6,2.39e6,inactive
CG1662,1,96770,1.23e5,1.00e6,1.07e6,inactive
CG16723,1,1.74e5,2.18e5,1.72e6,2.05e6,inactive
CG16723,2,4.84e5,3.49e5,1.77e6,1.40e6,inactive
CG13722,1,2.35e5,2.30e5,2.19e6,2.60e6,inactive
CG13722,2,9.25e5,7.57e5,3.68e6,2.76e6,inactive
CG13722,3,8.69e5,6.78e5,7.61e5,6.72e5,inactive
CG6415,1,1.23e6,1.31e6,2.20e6,1.91e6,inactive
CG6415,2,4.96e5,4.83e5,1.21e6,1.24e6,inactive
eIF3b (eukaryotic translation initiation factor 3 subunit b),1,1.51e5,1.14e5,1.21e6,1.21e6,inactive
CG16825,1,1.51e5,2.01e5,1.29e6,1.07e6,inactive
CG15800,1,2.30e5,2.27e5,1.83e6,1.63e6,inactive
DIP2 (DISCO Interacting Protein 2),1,1.08e6,1.33e6,1.09e6,1.23e6,inactive
CG32264,1,18458,23797,1.63e5,1.69e5,active
CG32264,2,1.89e5,1.93e5,2.00e6,2.17e6,inactive
CG32264,3,1.05e6,9.13e5,1.33e6,1.00e6,inactive
CG32264,4,2.28e5,3.79e5,2.64e6,2.87e6,inactive
CG32264,5,4.97e5,4.25e5,1.14e6,6.35e5,inactive
Atox1 (Antioxidant 1 copper chaperone),1,4.32e5,9.42e5,8.01e5,1.15e6,inactive
CG17104,1,1.02e6,1.65e6,2.19e6,2.88e6,inactive
CG17104,2,2.21e5,2.55e5,1.06e6,1.12e6,inactive
asRNA:CR30267 (antisense RNA:CR30267),1,8.35e5,7.48e5,2.64e6,2.12e6,inactive
IntS4 (Integrator 4),1,2.61e5,2.34e5,1.04e6,1.10e6,inactive
CG32536 + CG32537,1,3.23e5,2.41e5,1.62e6,1.22e6,inactive

Just “firefly reporter light, replicate 1” (9 entries from above):
CG32264 #2 = 1.89e5
CG32264 #3 = 1.05e6
CG32264 #4 = 2.28e5
CG32264 #5 = 4.97e5
Atox1 (Antioxidant 1 copper chaperone) = 4.32e5
CG17104 #1 = 1.02e6
CG17104 #2 = 2.21e5
asRNA:CR30267 (antisense RNA:CR30267) = 8.35e5
IntS4 (Integrator 4) = 2.61e5

More reagents follow:
predicted target,reagent no.,"firefly reporter light, replicate 1","firefly reporter light, replicate 2","Renilla control light, replicate 1","Renilla control light, replicate 2",Outcome
ph-p (polyhomeotic proximal),1,3.26e5,3.67e5,2.75e6,3.17e6,inactive
Pgls (6-phosphogluconolactonase),1,4.06e5,4.59e5,3.23e6,2.69e6,inactive
Gr36a (Gustatory receptor 36a),1,7.91e5,7.38e5,1.23e6,1.47e6,inactive
Gr36a (Gustatory receptor 36a),2,2.23e5,1.85e5,6.30e5,8.38e5,inactive
Atg10 (Autophagy-related 10),1,5.21e5,4.02e5,2.48e6,2.03e6,inactive
CG2794,1,1.66e5,2.06e5,8.16e5,1.00e6,inactive
CG1236,1,24597,44636,3.99e5,3.59e5,inactive
CG11409,1,69761,54352,5.35e5,3.67e5,inactive
CG11409,2,3.05e5,4.58e5,1.09e6,1.62e6,inactive
CG30095,1,74593,1.29e5,1.64e6,1.64e6,inactive
rdgA (retinal degeneration A),1,2.67e5,2.99e5,3.10e6,3.10e6,inactive
rdgA (retinal degeneration A),2,3.70e5,4.90e5,2.98e6,3.06e6,inactive
rdgA (retinal degeneration A),3,1.32e5,1.54e5,1.32e6,8.59e5,inactive
rdgA (retinal degeneration A),4,8.65e5,1.05e6,1.27e6,1.33e6,inactive
rdgA (retinal degeneration A),5,3.45e5,3.21e5,5.76e5,6.38e5,inactive
rdgA (retinal degeneration A),6,,,,,inactive
rdgA (retinal degeneration A),7,6.34e5,6.92e5,1.77e6,1.68e6,active
Atg4a (Autophagy-related 4a),1,5.57e5,7.69e5,1.03e6,1.13e6,inactive
Atg4a (Autophagy-related 4a),2,9.37e5,7.05e5,2.49e6,1.89e6,inactive
CG31226,1,4.91e5,3.54e5,1.12e6,1.20e6,inactive
COX8 (Cytochrome c oxidase subunit 8),1,2.97e5,2.37e5,2.77e6,1.40e6,inactive
COX8 (Cytochrome c oxidase subunit 8),2,3.67e5,4.51e5,1.14e6,1.18e6,inactive
hoe1 (hoepel1),1,6.25e5,1.24e6,8.38e5,1.23e6,inactive
hoe1 (hoepel1),2,1.79e5,1.44e5,2.42e6,1.32e6,inactive
hoe1 (hoepel1),3,1.65e5,1.10e5,1.62e6,8.06e5,inactive
Ser6 (Serine protease 6),1,3.20e5,1.60e5,7.70e5,5.38e5,inactive
Ser6 (Serine protease 6),2,3.26e5,3.25e5,6.66e5,7.70e5,inactive
Galphaq (G protein alpha subunit q),1,1.32e6,1.29e6,1.99e6,1.49e6,inactive
Galphaq (G protein alpha subunit q),2,6.31e5,4.40e5,4.16e5,5.96e5,inactive
CG9377,1,3.05e5,6.20e5,1.10e6,1.96e6,inactive
tim (timeless),1,6.51e5,8.47e5,1.51e6,1.29e6,inactive
CG5386,1,4.67e5,5.14e5,4.99e5,6.96e5,inactive
